Measurements reported in PubChem BioAssay AID1508600 (Functional Genomics Laboratory (NCATS/FGL), 2020).
In all, about 53,000 sequences went through this assay and about 3,700 (7%) were called active.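 How the source made its calls: active means gene knockdowns whose robust z-score for IL-1 alpha signal is at least 2 or at most -2, so actives lie on both sides; inactive means the rest.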 The list shows a part of the results.

test: Components of the Cytosolic LPS Sensing Pathway: Gene Identification via Genome-wide siRNA Screen; details: RAW264.7 macrophages, IL-1a HTRF, actives lie on both sides, screened at 100 nM (by protocol), cells primed 5 h with Pam3CSK4 first;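 further: robust z of the log signal after scaling to non-targeting control siRNA wells of the plate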
How it was run: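 Mouse macrophage line RAW264.7 is transfected with siRNA (100 nM final), grown 48h, primed with TLR ligand Pam3CSK4 5 h and given intracellular LipidA 24 h. IL-1a in supernatant is read by HTRF and viability by luminescence.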

Sequence	z-score
GGCUAAUACAUAAAGUAGUTT against 4930515G01Rik	inactive: 0.452
CGUGAACAGGUGGUUGGACTT against Hspa14	inactive: 0.559
GGUGGUGGUGGAAAAGAAGTT against Vars	inactive: -0.272
GGGCCAAAUAUCAUAAACUTT against Strn4	inactive: -0.0105
GCCCGAGGUCAUCCUUUUATT against Cbx4	inactive: -1.76
GCCUAAACUACCCUUAUAGTT against Ocln	active: 3.4
CCCAAAGCCCUUUUAAACUTT against Hmbs	inactive: 0.301
GGAUGGAAUGCAGAAACGATT against Pcp2	inactive: -0.061
GGUCCAGAGUUAUGAUUUGTT against Mrm3	inactive: -0.184
CGAUACAUAUCCAUUGUAUTT against Skint9	inactive: 0.61
GCCCUGGCAUGCUAACAAATT against Prpf3	inactive: -0.749
GAGUGUCUUGAACACAGCCTT against Olfr635	inactive: -0.0711
CGUGGUGAACGAGAUUGAUTT against Kcnab1	inactive: 1.21
UAUGUCCUUGACAUUGGAGTT against Rnf225	inactive: 0.211
GGAGAGAAAAAGGACUCAGTT against Kcnd2	inactive: -1.67
GCAAAAAUUAUGCAGAGCATT against Olfr1443	inactive: 0.401
GGAUGGAGUGCCCUCAAGUTT against Pdk2	inactive: -0.717
GGAAUGAUCAUUCUAAUCCTT against Olfr1497	inactive: 1.19
GGAACGUGUUCAAAAGAGUTT against Sos1	active: 2.22
GGCGGAGUUUUUAAUACUCTT against Upb1	inactive: 1.79
GCUUUGUUUAUUUAGCCAGTT against Olfr154	inactive: -0.877
GCUCCUAGAUUGCACCUACTT against Sez6l2	inactive: 1.17

Sequence	z-score
CGGAUCUGAGAUAAAGACGTT against Arsj	inactive: 1
GGUGACUUUGAAAAAGCCATT against Hscb	inactive: -0.0876
GGGAGAGAUGUGGAAAUCUTT against Rac2	inactive: 0.0158
GCAUGUUUAGAACUCGCUCTT against Zfp87	inactive: -0.779
CCUAACCUGAAAGUUCCAGTT against Atxn7l1	inactive: 1.52
CGAGUGAGUGACGGCUACATT against Sema3e	inactive: -0.63
GGAAUCCUUUAUUCUUGUATT against Zfp687	inactive: 0.585
CGAAGAGAUCAGUAAUAUGTT against Kif21a	inactive: 0.31
GGUUUGUAAAGGUUAUGACTT against Nell2	inactive: 0.0203
GCUUUUACAAGACCUGUUCTT against Pde2a	inactive: -0.633
GCAGCUCUGCGGAAGCUUUTT against Olfr1350	inactive: -0.505
GGACCCAAGAAGAUGACGUTT against 0610010K14Rik	inactive: -0.694
GCAAGUGGUAAUGGUGACCTT against Tex15	inactive: -0.328
GGGAGUGUUUGAAUCUUUUTT against Ndc1	inactive: -1.55
GGGAUUGUAACAGCAUCCCTT against Epha6	inactive: 0.594
GCAAGGUGAUUUGUGUUCGTT against Lrrc4c	inactive: -0.291
GGUAAUAGGAGAUACUGUGTT against Gzme	inactive: 0.624
GCUCUAGGCAGAGCUAAGATT against Gsx1	inactive: 1.68
GGUCCACUUGCCAUCUAUUTT against Zfp54	inactive: -1.09
GGAAGUUGUAGUUUCGUGGTT against Tmem229a	inactive: -0.432
GGAACUUCGUCAGUACAUUTT against Setdb1	active: 5.77
GGCUAAUGUGCUCUCUCAUTT against Olfr644	inactive: 0.958

Sequence	z-score
CCCGGAUGAGGAAUUCAUGTT against Pdlim7	inactive: 1.01
GGACAAAAGGCAAUCUACATT against Mettl18	active: 2.8
GGAGAUUGGGAUCAAAGCCTT against Mthfd1	inactive: -1.56
GGCUUUGGCGAUAAGACAUTT against Glud1	active: 2.29
GGUUUGAGUUUAGAGUUCATT against Axl	inactive: -1.68
GGGCAAAAAUCCUCUAAAUTT against Gas7	inactive: 0.157
GGCUCUAAAGCAAUGGAUUTT against Chil5	inactive: 1.28
GGAAGUGCAAGAAAGAUAUTT against Ltbp3	inactive: -1.07
GGACAAACUGCCCUUACAGTT against BC048671	inactive: -0.0643
GGACUUUUGGAUAACUUAGTT against Lrrcc1	inactive: 0.943
GGACAAUGUUUCCUCACUCTT against Xcl1	inactive: -1.21
CCAGACUAUUGACUUUCUGTT against Tspan15	inactive: 0.198
GGUUUAUUGUAAUGGCUAATT against Olfr1271	inactive: 0.452
GCUAUGGAUCAAAGAAUUATT against Senp1	inactive: 0.204
CCUGUGAAUCACCCAAUCATT against Unc80	inactive: 0.0313
CGUGACCACAACUCAAGAATT against Lacc1	inactive: -1.09
AAUCAGUUUGAAAUGGUAGTT against Olfr255	inactive: -0.543
GGAAGUUAUUGGAGCUUUGTT against Olfr706	inactive: 1.92
CGCGCUGUGACUUUCAAAATT against Ifitm1	inactive: 0.574
GGCUGUGACUAUGUUGUGCTT against Top3b	active: -2.15
GCGACUGCGUUCGUUAUUUTT against Matn1	inactive: 1.38
CCCAGCACAUGCUAUCUCUTT against Zbtb21	active: -2.6

Sequence	z-score
CCAGAGUCGCUACAAAAUUTT against Vmn1r93	inactive: -0.346
GGAAAAGUCCUGUAAAAUUTT against Dmrta1	inactive: -0.631
GGAGACCUGGCAAAUGUAATT against Dctn5	inactive: 0.884
GGUAAAUAGUCACCUACGGTT against Cyb5r3	inactive: 1.4
CUUCAAUACACGAGUUGUCTT against Olfr1126	inactive: 0.123
GGAGAUCCUGGAAGACUUCTT against Ocstamp	active: 2.18
GGAGAGGAGACACAUCAGUTT against Gnpat	inactive: -0.067
GCCGUUAGGAAAAAACGAUTT against Tbcb	inactive: 1.38
GGUCUGUUUCUGAACUCCUTT against Hace1	inactive: -0.14
GCACCUGUUUGAGAUUACGTT against Arhgap22	inactive: 1.02
GCCUGUGAACCUGUAUUGUTT against Unc5c	inactive: -0.12
CCAUGCUUAGCUCAAUAGUTT against Pla2g3	inactive: 0.442
CCCUGUGUACAGAGAAAGGTT against Pabpn1l	inactive: -0.228
GGACUUAUUAUGUGAGUGUTT against Ncbp2	inactive: 0.555
GGUUUGUUUAGCUUGAAACTT against Ccr1	inactive: -0.227
GGAAGUUUGUGUCUGAUGUTT against Lpar6	inactive: -0.512
GGAUGGUUAUCAGGAAAAUTT against Scel	inactive: 0.267
CGACCCUGACAGAAUACUCTT against Saraf	inactive: -1.18
GGAGUCCGCUCAGAAUUUGTT against Lhpp	inactive: -0.194
GGCAGAAAUGAAAACACUUTT against Ier5l	inactive: -0.572
GGCUUAUGUCCCAAAGCUATT against Nexn	inactive: -0.633
CGUCACCUACCAAGGAGAGTT against Enpp7	inactive: -1.85

Sequence	z-score
GGGCCAAGAAAACCUACACTT against Cyp11b2	active: 2.63
GGACAGCUCUCAGAAUUCUTT against Ctse	inactive: -1.13
GGAACCCAAGUAGCCUUGUTT against Serf2	inactive: 0.117
GGGCUCUUAUAUAAUAGUUTT against Slc36a2	inactive: 0.0105
CCAACAUCCUUAAGCGGCUTT against Lonp1	inactive: -0.161
CGAGCUAGAUGACUUACUATT against Pkp4	inactive: 0.436
CCCUGUCAUCAUUGAUGGGTT against Bdh2	inactive: 1.12
GGUAGUUGUGCCAGAAAAATT against Garre1	inactive: 0.0675
GGAUAUACAAGCACAAACUTT against Gjc3	inactive: 0.432
GGAUCUAAUAAACCAAGUGTT against Slc25a10	inactive: 1.21
GGACGUACAUGAUGAUGUUTT against Gramd1b	inactive: 0.324
GGACAAGAGACUUCAUAGCTT against Grpel2	inactive: 0.534
GGGUUUGAAUGUUAUGACATT against Hhipl2	inactive: 0.0324
GGACACUUCCAAACUGACCTT against Tiparp	inactive: -1.43
GGUUGCACUACCUUCAUAUTT against Susd6	inactive: 0.238
GGGUUUAUCUUGAAGAAAATT against Cd48	inactive: 0.0374
GGAAAACUUUUCUGUCUGUTT against Dhx32	inactive: 0.93
GCAGCUAACAAAUGUCAGCTT against Popdc3	inactive: -0.566
GGACUAUAAAUGUAUUCUCTT against Tfpi2	inactive: -0.684
